Measurements reported in PubChem BioAssay AID504791 (Drosophila RNAi Screening Center, 2011)
The deposit covers about 23,000 reagents; shown is an unselected part of those that have a named target and a result. Over the whole deposit, 199 (0.86%) were called active. 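Plate-scaled ratios behind the calls are not deposited; printed light signals are raw; many rows marked increased or decreased are still called inactive.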 A number with no mark means an inactive call. Reagents against one gene are numbered here. A plus sign joins genes that one reagent is predicted to hit. Not stated in the record: the direction of the score.

- Aim: 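Factors in Argonaute-based small RNA production and activity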 (primary screen)
- System: Drosophila S2-derived reporter cells
- Reagents: long dsRNA against Drosophila genes, about 150-250 ng dsRNA per well (siRNA assay); about 80-120 ng (miRNA assay)
- Duration: about 5 days (siRNA assay); about 4 days (miRNA assay)
- Treatment: copper sulfate induction of reporters: 25 µM (siRNA assay); 200 mM stated (miRNA assay), 1-2 days before reading
- Detection: 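Dual luciferase assay: Renilla to firefly signal ratio in each well, scaled to the mean ratio of its plate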
- Active means: 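a well was a first-pass pick when its plate-scaled ratio rose above 1.5 (siRNA assay) or 1.6 (miRNA assay), or dropped below 0.6; a gene counted only if two separate dsRNAs agreed on retest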

Target gene | reagent no. | stable siRNA reporter change | miRNA reporter change | stable assay Renilla, run 1 (luminescence) | stable assay firefly, run 1 (luminescence)
Sulf1 (Sulfated) | 1 | – | – | 11120 | 5.26e5
xmas | 1 | – | – | 5943 | 4.65e5
xmas | 2 | – | – | 10417 | 5.77e5
CG13481 | 1 | – | – | 7893 | 4.07e5
psq (pipsqueak) | 1 | reporter ratio raised past the hit cutoff | – | 6858 | 2.19e5
psq (pipsqueak) | 2 | reporter ratio lowered past the hit cutoff | – | 2248 | 2.95e5
CG30154 | 1 | – | – | 6043 | 5.34e5
sty (sprouty) | 1 | – | – | 5767 | 3.54e5
sty (sprouty) | 2 | – | – | 5135 | 3.24e5
wupA (wings up A) | 1 | – | – | 5155 | 4.22e5
wupA (wings up A) | 2 | – | – | 5003 | 4.97e5
Pyroxd1 (Pyridine nucleotide-disulfide oxidoreductase domain 1) | 1 | – | – | 7079 | 4.58e5
CG10916 | 1 | – | – | 9631 | 2.93e5
CG13171 | 1 | – | – | 5638 | 3.12e5
Mob4 (MOB kinase activator 4) | 1 | – | – | 16051 | 9.73e5
CG33992 (retired record) + CG43755 | 1 | – | – | 5586 | 4.67e5
CG34409 | 1 | – | – | 6987 | 3.81e5
CG34409 | 2 | – | – | 9643 | 5.24e5
mtm (myotubularin) | 1 | – | – | 32236 | 5.18e5
Drsl1 (Drosomycin-like 1) | 1 | – | – | 3088 | 2.96e5
CG18870 | 1 | – | – | 7679 | 4.49e5
CtIP (CTBP-interacting protein) | 1 | – | – | 7696 | 3.87e5
CG14837 | 1 | – | – | 7372 | 4.55e5
Agps (Alkylglycerone phosphate synthase) | 1 | – | – | 5906 | 3.10e5
Ns2 (Nucleostemin 2) | 1 | – | – | 13116 | 5.52e5
CG40282 (retired record) | 1 | – | – | 7046 | 3.60e5
stas (Stasimon) | 1 | – | – | 6372 | 5.05e5
Arc1 (Activity-regulated cytoskeleton associated protein 1) | 1 | – | – | 4039 | 3.95e5
stck (steamer duck) | 1 | – | – | 7227 | 3.91e5
Cp7Fc (Chorion protein c at 7F) | 1 | – | – | 5334 | 3.11e5
Hgsnat (Heparan-alpha-glucosaminide N-acetyltransferase) | 1 | reporter ratio lowered past the hit cutoff (active) | – | 6330 | 6.43e5
Hgsnat (Heparan-alpha-glucosaminide N-acetyltransferase) | 2 | – | reporter ratio lowered past the hit cutoff (active) | – | –
Ype (Yippee) | 1 | – | – | 7811 | 4.84e5
BBS8 (Bardet-Biedl syndrome 8) | 1 | – | – | 8014 | 5.15e5

In a second layout: results already given
xmas #2 — stable assay Renilla, run 1 (luminescence): 10417; stable assay firefly, run 1 (luminescence): 5.77e5
CG13481 — stable assay Renilla, run 1 (luminescence): 7893; stable assay firefly, run 1 (luminescence): 4.07e5
psq (pipsqueak) #1 — stable siRNA reporter change: reporter ratio raised past the hit cutoff; stable assay Renilla, run 1 (luminescence): 6858; stable assay firefly, run 1 (luminescence): 2.19e5
